According to the supplement of paper PMC11348887:
Structures can show the parent of a compound that is named as a salt. This is one part of the list. Most values lie at the level of the controls, where differences are scatter.

Key:
Conditions in all cases: 5 µM; treatment: days 7-14 after plating, readout day 21
[1] = tested on: hPSC-derived cortical neurons (WA09); assay: nucleus area z-score vs screen plate; higher = larger nuclei (more mature)
[2] = tested on: hPSC-derived cortical neurons (WA09); assay: total neurite length per nucleus (MAP2) z-score; higher = more neurite growth
[3] = tested on: hPSC-derived cortical neurons (WA09); assay: nucleus roundness z-score vs screen plate; higher = rounder nuclei (more mature)
[4] = tested on: hPSC-derived cortical neurons (WA09); assay: KCl-induced FOS+/EGR-1+ double-positive nuclei fraction z-score (KCl minus unstimulated); higher = stronger activity-induced IEG response

SMILES	nucleus area z-score [1]	total neurite length per nucleus (z-score) [2]	nucleus roundness z-score [3]	KCl-induced FOS+/EGR-1+ double-positive nuclei fraction z-score [4]
Nc1nc(=O)n([C@@H]2CS[C@H](CO)O2)cc1F [Emtricitabine]	-0.416	0.349	0.713	1.15
C1COC(NC(C2CC2)C2CC2)=N1 [Rilmenidine Phosphate]	0.0401	-0.255	0.318	-0.313
Cc1ccccc1C(=O)Nc1ccc(C(=O)N2CCCC(O)c3cc(Cl)ccc32)c(C)c1 (stereo unspecified) [Tolvaptan]	3.02	-1.11	-0.125	-0.317
O=C(O)Cc1cccc(OCCCN(Cc2cccc(C(F)(F)F)c2Cl)CC(c2ccccc2)c2ccccc2)c1	0.23	0.0376	0.502	0.00457
CNC(=O)c1cc(Oc2ccc3nc(N[C@@H]4CCCC[C@H]4O)sc3c2)ccn1	0.166	0.408	0.0257	1.89
CC(C)(F)C[C@H](N[C@@H](c1ccc(-c2ccc(S(C)(=O)=O)cc2)cc1)C(F)(F)F)C(=O)NC1(C#N)CC1 [Odanacatib (MK-0822)]	0.288	0.347	0.926	0.743
CCc1cncnc1N1CCN(Cc2nc3ccc(C(F)(F)F)cc3[nH]2)CC1	0.163	-0.984	-0.933	0.0793
NC1=N[C@@](c2cccc(-c3cncnc3)c2)(c2ccnc(C(F)F)c2)c2cccc(F)c21	-0.562	-0.188	-0.767	-0.807
O=P(O)(O)C(Cl)(Cl)P(=O)(O)O [Clodronate Disodium]	1.46	0.723	1.4	0.576
Cc1cc(C)cc(NC(=O)Cc2ccc(OC(C)(C)C(=O)O)cc2)c1 [Efaproxiral Sodium]	0.125	0.162	-0.0594	0.592
Cc1ccc(Nc2nccc(N(C)c3ccc4c(C)n(C)nc4c3)n2)cc1S(N)(=O)=O [Pazopanib]	1.18	0.725	-0.0634	1.45
Cc1ccc(C(=O)C(C)CN2CCCCC2)cc1 (stereo unspecified) [Tolperisone HCl]	0.9	-0.912	-0.267	-0.572
Cc1ncc(CCCN(C)C)cc1Nc1ncc2c(n1)-c1ccc(C(F)(F)F)cc1NC(=S)C2	-2.01	0.598	0.942	-0.872
Nc1ncnc2n[nH]c(Nc3ccc(F)cc3)c12	1.11	0.11	-0.416	1.83
CC1(C)S[C@@H]2[C@H](NC(=O)Cc3ccccc3)C(=O)N2[C@H]1C(=O)O [Penicillin G Sodium]	-0.167	0.687	0.84	0.896
C[C@H](N)[C@H](O)c1cccc(O)c1 [Metaraminol Bitartrate]	0.394	0.671	-0.227	1.46
COc1ccc2c(Oc3ccc(NC(=O)c4c(C)n(CC(C)(C)O)n(-c5ccccc5)c4=O)nc3)ccnc2c1	2.19	0.377	-0.841	0.518
CCN1CCCC1CNC(=O)c1cc(S(=O)(=O)CC)c(N)cc1OC (stereo unspecified) [Amisulpride]	1.06	3.9	0.333	-0.154
Nc1ccc(C(=O)Nc2cccc(-c3nc(N4CCOCC4)c4oc5ncccc5c4n3)c2)cn1	-3.02	-0.937	-2.92	-0.119
O=C(CCN1CCN(C(=O)OCc2cc(Cl)cc(Cl)c2)CC1)c1ccc2[nH]c(=O)oc2c1	0.15	0.0851	-0.219	0.444

A second format for 17 compounds above.
SMILES,nucleus area z-score [1],total neurite length per nucleus (z-score) [2],nucleus roundness z-score [3],KCl-induced FOS+/EGR-1+ double-positive nuclei fraction z-score [4]
Nc1nc(=O)n([C@@H]2CS[C@H](CO)O2)cc1F [Emtricitabine],-0.416,0.349,0.713,1.15
C1COC(NC(C2CC2)C2CC2)=N1 [Rilmenidine Phosphate],0.0401,-0.255,0.318,-0.313
Cc1ccccc1C(=O)Nc1ccc(C(=O)N2CCCC(O)c3cc(Cl)ccc32)c(C)c1 (stereo unspecified) [Tolvaptan],3.02,-1.11,-0.125,-0.317
CNC(=O)c1cc(Oc2ccc3nc(N[C@@H]4CCCC[C@H]4O)sc3c2)ccn1,0.166,0.408,0.0257,1.89
CC(C)(F)C[C@H](N[C@@H](c1ccc(-c2ccc(S(C)(=O)=O)cc2)cc1)C(F)(F)F)C(=O)NC1(C#N)CC1 [Odanacatib (MK-0822)],0.288,0.347,0.926,0.743
CCc1cncnc1N1CCN(Cc2nc3ccc(C(F)(F)F)cc3[nH]2)CC1,0.163,-0.984,-0.933,0.0793
NC1=N[C@@](c2cccc(-c3cncnc3)c2)(c2ccnc(C(F)F)c2)c2cccc(F)c21,-0.562,-0.188,-0.767,-0.807
O=P(O)(O)C(Cl)(Cl)P(=O)(O)O [Clodronate Disodium],1.46,0.723,1.4,0.576
Cc1ccc(Nc2nccc(N(C)c3ccc4c(C)n(C)nc4c3)n2)cc1S(N)(=O)=O [Pazopanib],1.18,0.725,-0.0634,1.45
Cc1ncc(CCCN(C)C)cc1Nc1ncc2c(n1)-c1ccc(C(F)(F)F)cc1NC(=S)C2,-2.01,0.598,0.942,-0.872
Nc1ncnc2n[nH]c(Nc3ccc(F)cc3)c12,1.11,0.11,-0.416,1.83
CC1(C)S[C@@H]2[C@H](NC(=O)Cc3ccccc3)C(=O)N2[C@H]1C(=O)O [Penicillin G Sodium],-0.167,0.687,0.84,0.896
C[C@H](N)[C@H](O)c1cccc(O)c1 [Metaraminol Bitartrate],0.394,0.671,-0.227,1.46
COc1ccc2c(Oc3ccc(NC(=O)c4c(C)n(CC(C)(C)O)n(-c5ccccc5)c4=O)nc3)ccnc2c1,2.19,0.377,-0.841,0.518
CCN1CCCC1CNC(=O)c1cc(S(=O)(=O)CC)c(N)cc1OC (stereo unspecified) [Amisulpride],1.06,3.9,0.333,-0.154
Nc1ccc(C(=O)Nc2cccc(-c3nc(N4CCOCC4)c4oc5ncccc5c4n3)c2)cn1,-3.02,-0.937,-2.92,-0.119
O=C(CCN1CCN(C(=O)OCc2cc(Cl)cc(Cl)c2)CC1)c1ccc2[nH]c(=O)oc2c1,0.15,0.0851,-0.219,0.444

Next entries follow.

SMILES	nucleus area z-score [1]	total neurite length per nucleus (z-score) [2]	nucleus roundness z-score [3]	KCl-induced FOS+/EGR-1+ double-positive nuclei fraction z-score [4]
Cc1nc(Nc2cnn(C3CCNCC3)c2)nc2c1N(C)C(=O)c1cc3ccccc3cc1N2C	-3.22	-1.11	0.568	0.00925
COC(=O)C1=C(C#N)NC(C)=C(C(=O)OC(C)C)C1c1cccc([N+](=O)[O-])c1 (stereo unspecified) [Nilvadipine]	-1.36	-0.656	0.834	1.43
C=CCc1ccc(O)c(-c2ccc(O)c(CC=C)c2)c1 [Honokiol]	0.461	0.189	-0.39	0.0039
Nc1ccn([C@@H]2O[C@H](CO)[C@@H](O)[C@H]2O)c(=O)n1 [Cytidine]	0.378	-0.0602	0.6	0.268
CS(=O)(=O)c1cccc(CNc2nc(Nc3ccc4c(c3)CCC(=O)N4)ncc2C(F)(F)F)c1	-0.803	-0.794	0.451	0.0273
COc1ccccc1Oc1c(NS(=O)(=O)c2ccc(C(C)(C)C)cc2)nc(-c2ncccn2)nc1OCCO [Bosentan Hydrate]	1.39	0.733	1.8	2.49
O=c1[nH]c(=O)n([C@H]2C[C@H](O)[C@@H](CO)O2)cc1F [Floxuridine]	-1.69	-1.06	-0.219	-1.37
CNC(CC(=O)O)C(=O)O [NMDA (N-Methyl-D-aspartic acid)]	0.674	1.78	2.28	1.19
C[C@H]1[C@@H](O)O[C@@H]2O[C@@]3(C)CC[C@H]4[C@H](C)CC[C@@H]1[C@@]24OO3 [Dihydroartemisinin (DHA)]	1.16	-0.6	-0.684	-0.734
CCOC(=O)c1ccc(C#Cc2ccc3c(c2)C(C)(C)CCS3)nc1 [Tazarotene]	0.37	-0.00521	-0.579	-0.0922
CCOc1cn(-c2ccc(F)cc2C)nc1C(=O)Nc1ccc(Oc2ccnc3cc(OC)c(OC)cc23)c(F)c1	-0.178	0.596	0.927	0.171
Cn1cc(/C=C2\C(=O)Nc3cccnc32)c2ccccc21	-0.00153	0.142	-0.414	0.834
CCn1cc(C(=O)O)c(=O)c2cnc(N3CCCC3)nc21 [Piromidic Acid]	1.42	-0.297	-1.37	-0.525
CCc1ccc(OCc2ccccc2C(=O)Nc2ccc3nc(C)cc(N)c3c2)cc1	-14.7	-5.47	0.5	-0.176
COc1cc2nccc(Oc3ccc(NC(=O)Nc4cc(C)on4)c(Cl)c3)c2cc1OC [Tivozanib (AV-951)]	0.59	1.01	0.417	0.86
CCOc1cc(C(C)(C)C)ccc1C1=N[C@@](C)(c2ccc(Cl)cc2)[C@@](C)(c2ccc(Cl)cc2)N1C(=O)N1CCN(CCCS(C)(=O)=O)CC1	-1.5	0.885	0.979	-0.383
COCCCOc1ccnc(C[S+]([O-])c2nc3ccccc3[nH]2)c1C (stereo unspecified) [Rebeprazole sodium]	2.4	-0.484	-0.26	0.00802
N#CC[C@H](C1CCCC1)n1cc(-c2ncnc3[nH]ccc23)cn1	1.17	0.144	0.395	1.32
O=C(/C=C/c1cccc(S(=O)(=O)Nc2ccccc2)c1)NO [Belinostat (PXD101)]	-8.82	-3.69	-6.42	-1.43

SMILES	nucleus area z-score [1]	total neurite length per nucleus (z-score) [2]	nucleus roundness z-score [3]	KCl-induced FOS+/EGR-1+ double-positive nuclei fraction z-score [4]
NC(=O)[C@@H](CCC(F)(F)F)N(Cc1ccc(-c2ncon2)cc1F)S(=O)(=O)c1ccc(Cl)cc1	-0.496	-0.319	0.0127	-0.0549
Nc1c(CC(=O)O)cccc1C(=O)c1ccccc1 [Amfenac Sodium Monohydrate]	-0.00289	1.24	1.99	0.732
CCC1(c2c[nH]cn2)Cc2ccccc2C1 [Atipamezole hydrochloride]	-2.73	-0.754	-2.6	-1.48
Cc1cn(-c2cc(NC(=O)c3ccc(C)c(Nc4nccc(-c5cnccn5)n4)c3)cc(C(F)(F)F)c2)cn1 [Radotinib]	1.15	0.0116	-0.466	0.0679
CCc1c(O)cc(O)c(C(=O)c2ccc(OCCN3CCOCC3)c(OC)c2)c1CC(=O)N(CCOC)CCOC	-8.91	-4.98	-4.46	-0.895
c1cc(-c2cnn3cc(-c4ccc(OCCN5CCCCC5)cc4)cnc23)ccn1 [Dorsomorphin (Compound C)]	0.283	0.0887	-0.805	-0.402
CS(=O)(=O)CCNCc1ccc(-c2ccc3ncnc(Nc4ccc(OCc5cccc(F)c5)c(Cl)c4)c3c2)o1 [Lapatinib]	-3.77	-1.13	-1.01	-1.06
Clc1ccc(C(Cn2ccnc2)OCc2c(Cl)cccc2Cl)c(Cl)c1 (stereo unspecified) [Isoconazole nitrate]	-0.963	0.247	0.942	0.146
COc1cc(CCc2cc(NC(=O)c3ccc(N4CC(C)NC(C)C4)cc3)n[nH]2)cc(OC)c1 (stereo unspecified)	-2.38	0.0659	-0.132	-1.35
C[C@H](Nc1ncnc2[nH]cnc12)c1cc2ccc(F)cc2nc1-c1ccccn1	-0.807	0.457	0.155	-0.576
COC(=O)C1=C(C)NC(C)=C(C(=O)OC)C1c1ccccc1[N+](=O)[O-] [Nifedipine]	-0.352	0.701	-0.207	-0.112
OC[C@H]1O[C@@H](OCCc2ccc(O)cc2)[C@H](O)[C@@H](O)[C@@H]1O [Salidroside]	0.0968	0.551	0.136	0.728
Cc1cc(Cn2cnc3c2CC(C(=O)O)N(C(=O)C(c2ccccc2)c2ccccc2)C3)ccc1N(C)C (stereo unspecified)	4.43	-0.538	-1.31	0.407
CN(C)S(=O)(=O)c1ccc2c(c1)/C(=C/c1cc3c([nH]1)CCCC3)C(=O)N2	0.0819	0.238	0.334	0.74
CC(C(O)c1ccc(O)cc1)N1CCC(Cc2ccccc2)CC1 (stereo unspecified) [Ifenprodil Tartrate]	-3.15	-3.12	-2.32	-1.45
O=C(NCC1(c2nc(-c3ccccc3)cs2)CCOCC1)c1cccc(-c2noc(C(F)(F)F)n2)c1	0.999	0.607	-0.563	0.917
O=C1Nc2ccc(Cl)cc2[C@@](C#CC2CC2)(C(F)(F)F)O1 [Efavirenz]	0.58	-0.514	0.0299	-0.763
O=C(/C=C\n1cnc(-c2cc(C(F)(F)F)cc(C(F)(F)F)c2)n1)NNc1ccccn1 [Verdinexor (KPT-335)]	-9.99	-2.82	-5.91	-0.687
CC(C(=O)O)c1ccc2c(c1)Cc1cccnc1O2 (stereo unspecified) [Pranoprofen]	0.685	-0.665	0.276	-0.647
